Experimental findings from the supplement of paper PMC8728848 are described below.

Holding throughout (test): glycan array binding signal (z-score within array); higher = stronger binding
What all share (settings): glycan notation: IUPAC condensed, linker removed; mutation: Q318A

Assay [1] addresses Gal(b1-4)GlcNAc(b1-3)Gal(b1-3)GlcNAc. Summed up:
(§1)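 The Consortium for Functional Glycomics database supplied 3228 glycan arrays, of which those lacking an available protein sequence were dropped. The binding signal, a within-array Z-score, was averaged across arrays of the same protein sequence and across linkers. Negative scores can be read as non-binding.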

In assay [2] the target is Gal(b1-4)GlcNAc(b1-3)Gal(b1-4)Glc. An outline of the steps:
as §1

Assay [3] concerns the target Gal(b1-4)GlcNAc(b1-3)Gal(b1-4)GlcNAc. Summed up: as §1
The target of assay [4] is Gal(b1-4)GlcNAc(b1-3)Gal(b1-4)GlcNAc(b1-2)Man(a1-3)[Gal(b1-4)GlcNAc(b1-3)Gal(b1-4)GlcNAc(b1-2)Man(a1-6)]Man(b1-4)GlcNAc(b1-4)GlcNAc. An outline of the steps:
as §1

Assay [5] has as its target Gal(b1-4)GlcNAc(b1-3)Gal(b1-4)GlcNAc(b1-2)Man(a1-3)[Gal(b1-4)GlcNAc(b1-3)Gal(b1-4)GlcNAc(b1-2)Man(a1-6)]Man(b1-4)GlcNAc(b1-4)[Fuc(a1-6)]GlcNAc. Summed up: as §1
Assay [6] concerns the target Gal(b1-4)GlcNAc(b1-3)Gal(b1-4)GlcNAc(b1-2)[Gal(b1-4)GlcNAc(b1-3)Gal(b1-4)GlcNAc(b1-6)]Man(a1-6)[Gal(b1-4)GlcNAc(b1-3)Gal(b1-4)GlcNAc(b1-2)Man(a1-3)]Man(b1-4)GlcNAc(b1-4)GlcNAc. Summed up: as §1
Assay [7] has as its target Gal(b1-4)GlcNAc(b1-3)Gal(b1-4)GlcNAc(b1-2)[Gal(b1-4)GlcNAc(b1-3)Gal(b1-4)GlcNAc(b1-6)]Man(a1-6)[Gal(b1-4)GlcNAc(b1-3)Gal(b1-4)GlcNAc(b1-2)Man(a1-3)]Man(b1-4)GlcNAc(b1-4)[Fuc(a1-6)]GlcNAc. Summed up: as §1
In assay [8] the target is Gal(b1-4)GlcNAc(b1-3)Gal(b1-4)GlcNAc(b1-3)Gal(b1-4)GlcNAc. Summed up: as §1
Assay [9] has as its target Gal(b1-4)GlcNAc(b1-3)Gal(b1-4)GlcNAc(b1-3)Gal(b1-4)GlcNAc(b1-2)Man(a1-3)[Gal(b1-4)GlcNAc(b1-3)Gal(b1-4)GlcNAc(b1-3)Gal(b1-4)GlcNAc(b1-2)Man(a1-6)]Man(b1-4)GlcNAc(b1-4)GlcNAc. An outline of the steps:
as §1

Assay [10] addresses Gal(b1-4)GlcNAc(b1-3)Gal(b1-4)GlcNAc(b1-3)Gal(b1-4)GlcNAc(b1-2)Man(a1-3)[Gal(b1-4)GlcNAc(b1-3)Gal(b1-4)GlcNAc(b1-3)Gal(b1-4)GlcNAc(b1-2)Man(a1-6)]Man(b1-4)GlcNAc(b1-4)[Fuc(a1-6)]GlcNAc. An outline of the steps:
as §1

Assay [11] deals with Gal(b1-4)GlcNAc(b1-3)Gal(b1-4)GlcNAc(b1-3)Gal(b1-4)GlcNAc(b1-2)[Gal(b1-4)GlcNAc(b1-3)Gal(b1-4)GlcNAc(b1-3)Gal(b1-4)GlcNAc(b1-6)]Man(a1-6)[Gal(b1-4)GlcNAc(b1-3)Gal(b1-4)GlcNAc(b1-3)Gal(b1-4)GlcNAc(b1-2)Man(a1-3)]Man(b1-4)GlcNAc(b1-4)[Fuc(a1-6)]GlcNAc. An outline of the steps:
as §1

Assay [12] has as its target Gal(b1-4)GlcNAc(b1-3)Gal(b1-4)GlcNAc(b1-3)Gal(b1-4)GlcNAc(b1-3)Gal(b1-4)GlcNAc(b1-2)Man(a1-3)[Gal(b1-4)GlcNAc(b1-3)Gal(b1-4)GlcNAc(b1-3)Gal(b1-4)GlcNAc(b1-3)Gal(b1-4)GlcNAc(b1-2)Man(a1-6)]Man(b1-4)GlcNAc(b1-4)GlcNAc. Summed up: as §1
For assay [13], the target named is Gal(b1-4)GlcNAc(b1-3)Gal(b1-4)GlcNAc(b1-3)Gal(b1-4)GlcNAc(b1-3)Gal(b1-4)GlcNAc(b1-2)Man(a1-3)[Gal(b1-4)GlcNAc(b1-3)Gal(b1-4)GlcNAc(b1-3)Gal(b1-4)GlcNAc(b1-3)Gal(b1-4)GlcNAc(b1-2)Man(a1-6)]Man(b1-4)GlcNAc(b1-4)[Fuc(a1-6)]GlcNAc. Summed up: as §1
For assay [14], the target named is Gal(b1-4)GlcNAc(b1-3)Gal(b1-4)GlcNAc(b1-3)Gal(b1-4)GlcNAc(b1-3)Gal(b1-4)GlcNAc(b1-2)[Gal(b1-4)GlcNAc(b1-3)Gal(b1-4)GlcNAc(b1-3)Gal(b1-4)GlcNAc(b1-3)Gal(b1-4)GlcNAc(b1-6)]Man(a1-6)[Gal(b1-4)GlcNAc(b1-3)Gal(b1-4)GlcNAc(b1-3)Gal(b1-4)GlcNAc(b1-3)Gal(b1-4)GlcNAc(b1-2)Man(a1-3)]Man(b1-4)GlcNAc(b1-4)[Fuc(a1-6)]GlcNAc. An outline of the steps: as §1
Assay [15] addresses Gal(b1-4)GlcNAc(b1-3)Gal(b1-4)GlcNAc(b1-3)Gal(b1-4)GlcNAc(b1-3)Gal(b1-4)GlcNAc(b1-3)Gal(b1-4)GlcNAc(b1-2)Man(a1-3)[Gal(b1-4)GlcNAc(b1-3)Gal(b1-4)GlcNAc(b1-3)Gal(b1-4)GlcNAc(b1-3)Gal(b1-4)GlcNAc(b1-3)Gal(b1-4)GlcNAc(b1-2)Man(a1-6)]Man(b1-4)GlcNAc(b1-4)GlcNAc. Summed up: as §1
Assay [16] has as its target Gal(b1-4)GlcNAc(b1-3)Gal(b1-4)GlcNAc(b1-3)Gal(b1-4)GlcNAc(b1-3)Gal(b1-4)GlcNAc(b1-3)Gal(b1-4)GlcNAc(b1-2)Man(a1-3)[Gal(b1-4)GlcNAc(b1-3)Gal(b1-4)GlcNAc(b1-3)Gal(b1-4)GlcNAc(b1-3)Gal(b1-4)GlcNAc(b1-3)Gal(b1-4)GlcNAc(b1-2)Man(a1-6)]Man(b1-4)GlcNAc(b1-4)[Fuc(a1-6)]GlcNAc. An outline of the steps: as §1
Assay [17] concerns the target Gal(b1-4)GlcNAc(b1-3)Gal(b1-4)GlcNAc(b1-3)Gal(b1-4)GlcNAc(b1-3)Gal(b1-4)GlcNAc(b1-3)Gal(b1-4)GlcNAc(b1-2)[Gal(b1-4)GlcNAc(b1-3)Gal(b1-4)GlcNAc(b1-3)Gal(b1-4)GlcNAc(b1-3)Gal(b1-4)GlcNAc(b1-3)Gal(b1-4)GlcNAc(b1-6)]Man(a1-6)[Gal(b1-4)GlcNAc(b1-3)Gal(b1-4)GlcNAc(b1-3)Gal(b1-4)GlcNAc(b1-3)Gal(b1-4)GlcNAc(b1-3)Gal(b1-4)GlcNAc(b1-2)Man(a1-3)]Man(b1-4)GlcNAc(b1-4)[Fuc(a1-6)]GlcNAc. An outline of the steps:
as §1

The target of assay [18] is Gal(b1-4)GlcNAc(b1-3)Gal(b1-4)GlcNAc(b1-3)Gal(b1-4)GlcNAc(b1-3)Gal(b1-4)GlcNAc(b1-3)Gal(b1-4)GlcNAc(b1-3)Gal(b1-4)GlcNAc(b1-2)Man(a1-3)[Gal(b1-4)GlcNAc(b1-3)Gal(b1-4)GlcNAc(b1-3)Gal(b1-4)GlcNAc(b1-3)Gal(b1-4)GlcNAc(b1-3)Gal(b1-4)GlcNAc(b1-3)Gal(b1-4)GlcNAc(b1-2)Man(a1-6)]Man(b1-4)GlcNAc(b1-4)GlcNAc. Summed up:
as §1

Assay [19] addresses Gal(b1-4)GlcNAc(b1-3)Gal(b1-4)GlcNAc(b1-3)GalNAc. Summed up:
as §1

Some of the results follow.

B1: SUN4 (Saccharomyces cerevisiae), P53616 (protein)
chain: MGSSHHHHHHSSGLVPRGSHNGSIYGDLADFSGPYEKFEDGTIPCGQFPSGQGVIPISWLDEGGWSGVENTDTSTGGSCKEGSYCSYACQPGMSKTQWPSDQPSDGRSIGGLLCKDGYLYRSNTDTDYLCEWGVDAAYVVSELSNDVAICRTDYPGTENMVIPTYVQAGDSLPLTVVDQDTYYTWQGLKTSAAYYVNNAGISVEDACVWGSSSSGVGNWAPLNFGAGSSDGVAYLSLIPNPNNGNALNFNVKIVAADDSSTVNGECIYENGSFSGGSDGCTVSVTAGKAKFVLYN
As for B1, the “glycan array binding signal (z-score)” value is -0.867 in assay [1]; -0.702 in assay [2]; -0.633 in assay [3]; 0.914 in [4]; 0.318 in assay [5]; 0.817 in assay [6]. Further, the “glycan array binding signal (z-score)” value in [7] was -0.707; in assay [8], 0.036; in assay [9] it was -0.249; in [10], -0.208; in [11], 1.61; in assay [12], -0.029. In addition, the “glycan array binding signal (z-score)” value in [13] was 1.5; in [14], 0.027; in assay [15], 1.28; in assay [16], 2.04; in assay [17], 0.936; in [18], 0.524. For the same molecule, the “glycan array binding signal (z-score)” value in [19] was found to be 0.366.
